Experimental data: the supplement of paper PMC12889115
The list shows a part of the results. Values are raw readings; no control value is given beside them.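 Primary screen: polymyxin B was added at a level permeabilizing Salmonella outer membranes while sparing inner membranes. DMSO wells, both with and without polymyxin B, established maximum growth. Plate-to-plate variation meant each plate was ranked on its own, and the lowest-OD600 compounds were selected as hits.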

Test system: Salmonella enterica serovar Typhimurium SL1344
Assay: bacterial growth OD600 after 18 h with compound and polymyxin B; higher = more bacterial growth (less inhibition)
Conditions: 50 µM, Mueller-Hinton broth

Structure (SMILES) | bacterial growth OD600 (polymyxin B 1 µg/mL) | bacterial growth OD600 (polymyxin B 0.75 µg/mL)
O=C(Nc1ccccc1Oc1cccnc1)C1CCCN(C(=O)c2cc(F)ccc2F)C1 (stereo not given) | 1.04 | –
CO[C@H]1[C@H](NC(=O)c2ccccn2)c2ccccc2C12CCN(C(=O)COc1ccccc1)CC2 | – | 0.833
C=CCCC(=O)N1CCC(N2CCCC(C(=O)NC3CC3)C2)CC1 (stereo not given) | – | 0.808
Cc1oc(-c2ccc(NC(=O)Cc3ccccc3)cc2)nc1CNC(=O)Cc1ccsc1 | – | 0.945
Cc1ccc2c(c1)CN(CC(=O)NC1CCCC1)CC(c1ccsc1)O2 (stereo not given) | – | 0.02
CCCc1cc(C(=O)N2CCc3c(cnc(C)c3CNC(=O)c3ccc4c(c3)OCO4)C2)n(C)n1 | – | 0.791
COc1cc(-c2nc(CN(C)C(C)c3ccon3)c(C)o2)ccc1F (stereo not given) | 0.843 | –
Cc1nn(C)cc1CN(C)C(=O)CC(c1ccccc1)c1ccccc1F (stereo not given) | 1.22 | –
CCOC(=O)C1(CCOc2ccccc2)CCN(C(=O)Cn2nc3ccccc3n2)CC1 | 0.633 | –
Cc1c(CN2CCN(Cc3ccccc3F)C(CCO)C2)[nH]c2ccccc12 (stereo not given) | 0.873 | –
O=C(c1cn(CC2CCCO2)nn1)N1CCC(CCc2ccccc2)CC1 (stereo not given) | 0.791 | –
COc1cccc(CN2C[C@@H]3C[C@@H](c4ccc(C)o4)N4CCC[C@@]34C2=O)c1 | – | 0.692
CCOC(=O)C1(CCOc2ccccc2)CCCN(CCO)C1 (stereo not given) | 0.975 | –
Cc1oc(-c2cccc(NC(=O)c3ccccn3)c2)nc1CNC(=O)Cc1ccccc1Cl | – | 0.574
Cc1cccc(C(=O)N2CCOc3ccc(CN4CCC(OCc5ccccc5)CC4)cc3C2)n1 | – | 0.854
O=C(COc1ccccc1)Nc1ccc(N2CCC(NCCn3ccc4ccccc43)CC2)cc1 | – | 0.803
COCCNC(=O)c1ccc(OC)cc1OC1CCN(Cc2cnn(C(C)C)c2)CC1 | 1.2 | –
CCOc1ccccc1CN1CC[C@@H](N2CCC(O)CC2)[C@H](O)C1 | – | 0.976
O=C(Cc1ccc(N2CCC(NC3Cc4ccccc4C3)CC2)cc1)NCCc1cccc(F)c1 | – | 0.78
COc1ccccc1CN(C)C(=O)c1coc(COc2cccc3cccnc23)n1 | 0.908 | –
COc1ccccc1CN1C[C@@H]2C[C@@H](c3ccc(C)c(C)c3)N3CCC[C@@]23C1=O | – | 0.015
COc1ccc(C(CC(=O)N(C)Cc2cccnc2)c2ccccc2)cc1 (stereo not given) | 0.62 | –
Cc1cc(-c2cnnc(N3CCN(C4CCc5ccccc5C4)CC3)n2)c(C)o1 (stereo not given) | – | 0.769
CCOC(=O)N1CCN(C(=O)c2cc(COc3ccc4sc(C)nc4c3)on2)CC1 | – | 0.804
COc1ccc(OC2CCN(C3CCCC3)CC2)c(C(=O)N2CCCCCCC2)c1 | 0.979 | –
CCN(CC)C(=O)C1CCCN(Cc2ccc3c(c2)CN(Cc2ccc(OC)cc2OC)CCO3)C1 (stereo not given) | – | 0.982
COCC1CCN(C(=O)C2CCN(c3nc(C)c4ccccc4n3)CC2)CC1 | – | 0.834
CCN(CC)C(=O)Cn1cc(C(=O)N2CCCC(COc3cccc(F)c3)C2)nn1 (stereo not given) | 0.741 | –
Cc1ccc2c(C)nc(N3CCCC(C(=O)NCC(C)(C)CO)C3)nc2c1 (stereo not given) | – | 0.822
CCN1C(=O)CC(CC(=O)N2CCCCC2COC)(c2cccc(C(F)(F)F)c2)C1=O (stereo not given) | – | 0.771

Sorted by count of non-hydrogen atoms (high to low): some entries from above.
Structure (SMILES) | bacterial growth OD600 (polymyxin B 1 µg/mL) | bacterial growth OD600 (polymyxin B 0.75 µg/mL)
COc1ccc(C(CC(=O)N(C)Cc2cccnc2)c2ccccc2)cc1 (stereo not given) | 0.62 | –
Cc1ccc2c(c1)CN(CC(=O)NC1CCCC1)CC(c1ccsc1)O2 (stereo not given) | – | 0.02
C=CCCC(=O)N1CCC(N2CCCC(C(=O)NC3CC3)C2)CC1 (stereo not given) | – | 0.808
